This data set deals with CHO-K1 cells. As to the kind of experiment: Luminescence activity of KAZ mutants expressed in animal culture cells without secretional signal peptide sequence. Format: cell-based, Chinese hamster. To be noted: for Rate of Secretion (Medium/Cell Extracts): Table 12, pcDNA3- vectors without secretion signal, CHO-K1; for Secretion from the cells: vectors without a secretion signal, animal culture cells. As for the experimental part: Chinese hamster ovary cell line CHO-K1 was cultured in Ham's F-12 medium (manufactured by Wako Pure Chemical Industries, Ltd.) supplemented with 10% (v/v) fetal bovine serum (manufactured by Biowest Inc.). The CHO-K1 cells were plated in a 6-well plate in 1×10^5 cells/well/2 mL medium (n=2) and cultured in an incubator at 37° C. in 5% (v/v) CO2. After 24 hours, the purified recombinant plasmid was transfected to CHO-K1 cells using a FuGene HD transfection kit (manufactured by Promega Corp.), which was provided for subsequent experiment. Specifically, 1 μg of the recombinant plasmid pGL4.13 [Luc2/sv40], 0.1 μg of the internal standard vector and 3 μL of FuGene HD were added to 100 μL of the medium, which was allowed to stand at room temperature for 15 minutes. Subsequently, 100 μL of the DNA-FuGene complex was added to the cells in the 6 wells. After incubation for 48 hours, the culture medium was collected. On the other hand, the KAZ mutants expressed in the cells were washed 3 times with 3 mL of 1×PBS, then suspended in 1 mL of 1×PBS and disrupted on ice by ultrasonication, which was used as enzyme solutions of the cell-extracts of KAZ mutants.
A luminescence reaction was started by adding 5 μL of the culture media and cell extracts obtained in EXAMPLE 10 to 100 μL of 30 mM Tris-HCl (pH 7.6)-10 mM EDTA (manufactured by Wako Pure Chemical Industries, Ltd.) containing 0.5 μg of coelenterazine (manufactured by INC Corp.). The luminescence activity was determined using a luminometer (manufactured by Atto Inc.: AB2200) for 60 seconds, and the maximum intensity of luminescence (Imax) was defined as a percentage.
The gene fragments of the KAZ mutants with two amino acid substitutions and three amino acid substitutions and nanoKAZ containing the Kozak sequence were digested with restriction enzymes Asp718 and XbaI, and inserted into the Asp718-XbaI site of pcDNA3 vector (manufactured by Invitrogen Inc.) to construct the vectors of pcDNA3-KAZ-V44I, pcDNA3-KAZ-A54I, pcDNA3-KAZ-Y138I, pcDNA3-KAZ-V44I-A54I, pcDNA3-KAZ-V44I-Y138I, pcDNA3-KAZ-A54I-Y138I and pcDNA3-KAZ-V44I-A54I-Y138I.
The culture media of the KAZ mutants with two amino acid substitutions and KAZ mutants with three amino acid substitutions and the enzyme solutions of cell-extracts of KAZ mutants were obtained in the same manner as EXAMPLE 10.
Luminescence activities of the resulting enzyme solutions and enzyme solutions of the cell-extracts of KAZ mutants were determined in the same manner as EXAMPLE 11.

Numbering of substitutions follows the chain as printed. Numbers in names are those of the source. Some entries repeat one wording, which the source may state once for all of them.

B1: KAZ-V44I-A54I: KAZ mutant with two amino acid substitutions V44I and A54I, SEQ ID NO: 10 (protein)
chain: FTLADFVGDWQQTAGYNQDQVLEQGGLSSLFQALGVSVTPIQKIVLSGENGLKIDIHVIIPYEGLSGFQMGLIEMIFKVVYPVDDHHFKIILHYGTLVIDGVTPNMIDYFGRPYPGIAVFDGKQITVTGTLWNGNKIYDERLINPDGSLLFRVTINGVTGWRLCENILA
For B1, the “Rate of Secretion (Medium/Cell Extracts)” value came out at 0.0022 and the “Secretion from the cells” value is on record as “not secreted from animal culture cells”.

B2: KAZ: wild 19 kDa catalytic protein of Oplophorus luciferase (19kOLase), amino acid sequence SEQ ID NO: 2 (protein, listed as Oplophorus gracilirostris)
chain: B1 chain with I44V, I54A
Take B2: the “Rate of Secretion (Medium/Cell Extracts)” value came to 0.03.

B3: KAZ-V44I-A54I-Y138I: KAZ mutant with three amino acid substitutions V44I, A54I and Y138I, SEQ ID NO: 16 (protein)
chain: B1 chain with Y138I
Take B3: the “Rate of Secretion (Medium/Cell Extracts)” value amounted to 0.0014 and the “Secretion from the cells” value was “not secreted from animal culture cells”.

B4: KAZ-V44I: KAZ with single amino acid substitution V44I, SEQ ID NO: 4 (protein)
chain: B1 chain with I54A
Consider B4, for which the “Rate of Secretion (Medium/Cell Extracts)” value is given as 0.016.

B5: KAZ-Y138I: KAZ with single amino acid substitution Y138I, SEQ ID NO: 8 (protein)
chain: B1 chain with I44V, I54A, Y138I
B5: the “Rate of Secretion (Medium/Cell Extracts)” value was found to be 0.0047.

B6: KAZ-A54I-Y138I: KAZ mutant with two amino acid substitutions A54I and Y138I, SEQ ID NO: 14 (protein)
chain: B1 chain with I44V, Y138I
Turning to B6, the “Rate of Secretion (Medium/Cell Extracts)” value came to 0.0023 and the “Secretion from the cells” value is listed as “not secreted from animal culture cells”.

B7: KAZ-A54I: KAZ with single amino acid substitution A54I, SEQ ID NO: 6 (protein)
chain: B1 chain with I44V
Take B7: the “Rate of Secretion (Medium/Cell Extracts)” value was determined as 0.0045.

B8: KAZ-V44I-Y138I: KAZ mutant with two amino acid substitutions V44I and Y138I, SEQ ID NO: 12 (protein)
chain: B1 chain with I54A, Y138I
Turning to B8, the “Rate of Secretion (Medium/Cell Extracts)” value is listed as 0.0026 and the “Secretion from the cells” value is listed as “not secreted from animal culture cells”.
